Reference: patent US11352392B2, “Artificially synthesized peptide H-473 and use thereof” (CHINA WEST NORMAL UNIVERSITY, priority 2018, dated 2022)
“Also recorded” adds a separate entry of the source. Part of at least one peptide drawing is inferred or uncertain, most often the ends. Marks after values point to notes of the source that are not given here. Ends that are not written are not given here.

By UniProt entry, the sequences of proteins in these tests, tags left out. Residues count along the entry.
UniProt P19438, 30-455, species assumed: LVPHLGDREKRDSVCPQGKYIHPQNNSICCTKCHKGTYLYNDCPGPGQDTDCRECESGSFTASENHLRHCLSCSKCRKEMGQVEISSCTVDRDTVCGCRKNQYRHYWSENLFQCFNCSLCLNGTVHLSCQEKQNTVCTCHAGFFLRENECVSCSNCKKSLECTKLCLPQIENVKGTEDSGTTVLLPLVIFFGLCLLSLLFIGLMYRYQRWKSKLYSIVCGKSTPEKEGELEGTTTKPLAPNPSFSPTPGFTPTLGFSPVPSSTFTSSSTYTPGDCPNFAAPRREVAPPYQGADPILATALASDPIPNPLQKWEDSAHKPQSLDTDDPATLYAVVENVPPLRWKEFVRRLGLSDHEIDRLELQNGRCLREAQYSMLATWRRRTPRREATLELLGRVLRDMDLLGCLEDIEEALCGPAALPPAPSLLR
UniProt P06729, 25-351, species assumed: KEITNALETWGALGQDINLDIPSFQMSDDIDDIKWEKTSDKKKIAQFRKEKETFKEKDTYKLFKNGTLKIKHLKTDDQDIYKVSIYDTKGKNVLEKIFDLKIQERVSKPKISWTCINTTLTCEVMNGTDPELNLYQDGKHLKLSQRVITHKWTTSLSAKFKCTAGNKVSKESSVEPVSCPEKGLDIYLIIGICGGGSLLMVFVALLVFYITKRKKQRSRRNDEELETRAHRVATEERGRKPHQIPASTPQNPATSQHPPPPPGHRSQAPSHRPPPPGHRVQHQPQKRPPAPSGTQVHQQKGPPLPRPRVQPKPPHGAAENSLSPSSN
UniProt P14778, 18-569, species assumed: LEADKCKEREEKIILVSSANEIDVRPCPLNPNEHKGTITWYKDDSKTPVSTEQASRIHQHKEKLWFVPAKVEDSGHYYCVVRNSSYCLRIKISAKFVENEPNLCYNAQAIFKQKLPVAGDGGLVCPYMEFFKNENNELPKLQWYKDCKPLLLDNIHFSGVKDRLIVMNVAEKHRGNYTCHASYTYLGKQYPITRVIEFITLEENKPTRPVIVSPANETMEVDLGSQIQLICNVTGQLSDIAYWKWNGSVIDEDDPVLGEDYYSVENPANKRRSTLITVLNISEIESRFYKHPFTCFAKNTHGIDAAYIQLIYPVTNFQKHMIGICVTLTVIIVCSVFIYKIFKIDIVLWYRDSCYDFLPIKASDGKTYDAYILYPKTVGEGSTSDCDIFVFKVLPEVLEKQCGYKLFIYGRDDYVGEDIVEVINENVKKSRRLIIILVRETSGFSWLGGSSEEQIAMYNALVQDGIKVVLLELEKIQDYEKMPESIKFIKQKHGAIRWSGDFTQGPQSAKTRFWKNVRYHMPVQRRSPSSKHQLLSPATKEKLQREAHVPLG
UniProt P19256, 29-250, species assumed: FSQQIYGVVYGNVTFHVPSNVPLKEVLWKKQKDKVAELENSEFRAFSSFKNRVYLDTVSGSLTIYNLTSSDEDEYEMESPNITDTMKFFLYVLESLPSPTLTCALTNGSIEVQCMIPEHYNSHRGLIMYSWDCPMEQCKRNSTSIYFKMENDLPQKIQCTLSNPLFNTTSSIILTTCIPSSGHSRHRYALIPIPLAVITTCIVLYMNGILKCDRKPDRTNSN
UniProt Q96F46, 33-866, species assumed: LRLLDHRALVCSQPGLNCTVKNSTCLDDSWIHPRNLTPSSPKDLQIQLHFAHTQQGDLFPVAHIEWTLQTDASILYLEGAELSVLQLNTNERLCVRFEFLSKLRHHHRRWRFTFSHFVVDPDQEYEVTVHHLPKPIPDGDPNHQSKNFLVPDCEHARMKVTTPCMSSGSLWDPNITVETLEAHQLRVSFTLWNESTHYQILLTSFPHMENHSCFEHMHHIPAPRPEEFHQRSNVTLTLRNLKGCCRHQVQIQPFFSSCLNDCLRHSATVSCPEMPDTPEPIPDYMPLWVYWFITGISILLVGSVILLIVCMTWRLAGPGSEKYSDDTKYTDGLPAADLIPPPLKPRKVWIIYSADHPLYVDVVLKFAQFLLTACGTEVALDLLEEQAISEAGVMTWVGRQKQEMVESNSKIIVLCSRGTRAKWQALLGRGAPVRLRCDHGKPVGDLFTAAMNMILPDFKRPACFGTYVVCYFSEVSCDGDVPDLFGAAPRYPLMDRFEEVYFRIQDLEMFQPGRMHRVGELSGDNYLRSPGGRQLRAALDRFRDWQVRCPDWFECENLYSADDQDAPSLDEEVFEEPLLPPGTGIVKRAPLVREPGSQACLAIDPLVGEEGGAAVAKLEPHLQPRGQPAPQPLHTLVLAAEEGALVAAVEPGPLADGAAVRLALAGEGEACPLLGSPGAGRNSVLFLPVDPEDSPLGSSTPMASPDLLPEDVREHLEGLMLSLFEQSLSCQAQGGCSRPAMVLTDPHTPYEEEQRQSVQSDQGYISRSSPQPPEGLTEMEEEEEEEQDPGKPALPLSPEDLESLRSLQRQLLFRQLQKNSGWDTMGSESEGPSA
UniProt P29459, 23-219: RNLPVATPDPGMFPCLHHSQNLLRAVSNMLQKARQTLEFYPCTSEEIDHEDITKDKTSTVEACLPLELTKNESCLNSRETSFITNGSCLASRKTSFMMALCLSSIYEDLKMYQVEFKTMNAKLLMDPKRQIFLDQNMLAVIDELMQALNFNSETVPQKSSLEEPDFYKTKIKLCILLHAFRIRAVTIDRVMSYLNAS
UniProt P29460, 23-328: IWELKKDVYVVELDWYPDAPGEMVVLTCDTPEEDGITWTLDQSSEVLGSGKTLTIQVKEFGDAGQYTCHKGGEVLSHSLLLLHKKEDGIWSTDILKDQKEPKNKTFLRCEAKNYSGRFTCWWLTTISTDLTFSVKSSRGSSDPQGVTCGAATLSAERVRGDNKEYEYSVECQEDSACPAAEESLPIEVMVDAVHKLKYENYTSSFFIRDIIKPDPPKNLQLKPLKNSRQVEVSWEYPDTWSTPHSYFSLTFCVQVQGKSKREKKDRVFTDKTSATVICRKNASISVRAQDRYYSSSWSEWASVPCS

How the values were obtained:
B cells = experiment: Expression levels of related proteins in cultured cells by ELISA; assay type: cell-based
[1] = test system: human gastric cancer MGC-803 cells; experiment: MTT assay for cell viability; assay type: cell-based; conditions: different concentrations, 36 h
MGC-803 xenograft tumors = experiment: Pharmacodynamic experiment on human gastric cancer MGC-803 xenograft tumor in nude mice; assay type: in vivo, BALB/c nude mice; conditions: MGC-803 xenograft nude mice; H-473 1 μg/kg or Interleukin-2 200,000 IU/kg, tail vein, once a day for 10 times
cfpac-1 xenograft tumors = experiment: Pharmacodynamic experiment on cfpac-1 xenograft tumor in nude mice; assay type: in vivo, BALB/c nude mice; conditions: cfpac-1 xenograft nude mice; H-473 1 μg/kg or Interleukin-2 200,000 IU/kg, tail vein, once a day for 10 times
[2] = test system: acetic acid-induced writhing response in mice; experiment: Acetic acid-induced writhing response in mice; assay type: in vivo, ICR mouse; conditions: for Number of twists: within 15 min after acetic acid
[3] = test system: gastric cancer MGC-803 cells; experiment: VEGF protein expression in cultured cells by ELISA; assay type: cell-based, human
[4] = test system: human pancreatic cancer cfpac-1 cells; experiment: MTT assay for cell viability; assay type: cell-based; conditions: different concentrations, 36 h
TNF-R1 = TNF-R1 (Homo sapiens, UniProt P19438); experiment: Binding at the molecular level (anti-psoriasis)
BCR = experiment: Binding at the molecular level (anti-psoriasis)
lung cancer A549 cells = experiment: VEGF protein expression in cultured cells by ELISA; assay type: cell-based
[5] = test system: VEGF, IL6, IL8, IL1-R, TNF-R1, IL17RA, IL12, IL12R and other genes; experiment: Gene transcription analysis of mouse tissues (AMD); assay type: in vivo, mice; conditions: 15 days of administration through nasal mucosa
CD4 = CD4 (Homo sapiens, UniProt P01730); experiment: Binding at the molecular level (anti-psoriasis)
T cells = experiment: Expression levels of related proteins in cultured cells by ELISA; assay type: cell-based
VEGFR = experiment: Binding in vitro at the molecular level (AMD)
[6] = test system: CARMA, VEGF, IL6, IL8, IL1-R, TNF-R1, IL17RA, IL12, IL12R and other genes; experiment: Gene transcription analysis of mouse tissues (anti-psoriasis); assay type: in vivo, mice; conditions: 12 days of administration through muscle and nasal mucosa
CD2 = CD2 (Homo sapiens, UniProt P06729); experiment: Binding at the molecular level (anti-psoriasis)
asthma in mice = experiment: Effect on asthma in mice (OVA sensitization, BALF cell count); assay type: in vivo, BALB/C mice; conditions: for BALF ESO / BALF ESO % / BALF WBC: 7 d
Method: At day 35 of the experiment, the test samples were respectively given one hour prior to OVA atomization.
5.6.1 Asthma model: mice were injected intraperitoneally with 0.2 ml of a sensitizing solution (ovalbumin OVA 80 μg+ Adjuvant liquid aluminum 0.1 ml) twice on days 0 and 14. From day 24 after the first sensitization, 2.5% OVA was aerosolized and inhaled for 45 min once daily for 18 days.
5.6.2 Administration: the corresponding test sample was given 1 h before the OVA solution atomization challenge since day 35 of the experiment. H-473 15 μg/kg group and H-473 30 μg/kg group were injected intramuscularly, respectively. The positive control group was injected with dexamethasone 1 mg/kg intramuscularly. Normal control group and model control group were injected with saline intramuscularly.
General global observations: respiratory rate, whether there was dyspnea, cyanosis, dysphoria and convulsion.
Bronchoalveolar lavage fluid (BALF) cells were counted and classified (EOS ratio elevated or not).

IL1-R = IL1-R (Homo sapiens, UniProt P14778); experiment: Binding at the molecular level (anti-psoriasis)
[7] = test system: human normal liver Chang Liver cells; experiment: MTT assay for cell viability; assay type: cell-based; conditions: different concentrations, 36 h
IL12R = experiment: Binding at the molecular level (anti-psoriasis)
CD58 = CD58 (Homo sapiens, UniProt P19256); experiment: Binding at the molecular level (anti-psoriasis)
PDGFR = experiment: Binding in vitro at the molecular level (AMD)
NOTCH1-3 = experiment: Binding at the molecular level (anti-psoriasis)
VEGF = experiment: Binding in vitro at the molecular level (AMD)
IL17RA = IL17RA (Homo sapiens, UniProt Q96F46); experiment: Binding at the molecular level (anti-psoriasis)
TCR = experiment: Binding at the molecular level (anti-psoriasis)
IL12 = IL12 (Homo sapiens, UniProt P29459+P29460); experiment: Binding at the molecular level (anti-psoriasis)

RGLRGLR [H-473, RGLRGLR]
expression levels of CARMA, VEGF, IL6, IL8, IL1-R, TNF-R1, IL17RA, IL12, IL12R and other proteins (B cells): significantly down-regulated | inhibitory effect on growth of MGC-803 cells [1]: remarkable inhibitory effect | Tumor weight (MGC-803 xenograft tumors): 0.938 ± 0.130 g | Tumor weight (cfpac-1 xenograft tumors): 0.16 ± 0.06**^ g | Number of twists ([2]; 0.5 mg/kg i.m.): 6.0 ± 3.2 | Number of twists ([2]; 1 mg/kg i.m.): 1.6 ± 0.7 | effect on number of acetic acid-induced writhing response ([2]; each dose group): obviously reduced; also recorded: significantly reduced | expression level of VEGF protein [3]: significantly down-regulated | inhibitory effect on growth of cfpac-1 cells [4]: remarkable inhibitory effect | binding to TNF-R1 (TNF-R1): efficiently bind | binding to BCR (BCR): efficiently bind | expression level of VEGF protein (lung cancer A549 cells): significantly down-regulated | transcription levels of VEGF, IL6, IL8, IL1-R, TNF-R1, IL17RA, IL12, IL12R and other genes [5]: significantly down-regulated | binding to CD4 (CD4): efficiently bind | expression levels of CARMA, VEGF, IL6, IL8, IL1-R, TNF-R1, IL17RA, IL12, IL12R and other proteins (T cells): significantly down-regulated | binding to VEGFR (VEGFR): fully bind | transcription levels of CARMA, VEGF, IL6, IL8, IL1-R, TNF-R1, IL17RA, IL12, IL12R and other genes [6]: significantly down-regulated | binding to CD2 (CD2): efficiently bind | BALF ESO (asthma in mice; 15 μg/kg intramuscular): 0.61 ± 0.06^## 10^9/L | BALF ESO % (asthma in mice; 15 μg/kg intramuscular): 5.81 ± 0.56 % | BALF WBC (asthma in mice; 15 μg/kg intramuscular): 10.4 ± 0.8^## 10^9/L | BALF ESO (asthma in mice; 30 μg/kg intramuscular): 0.40 ± 0.07^## 10^9/L | BALF ESO % (asthma in mice; 30 μg/kg intramuscular): 4.60 ± 0.94 % | BALF WBC (asthma in mice; 30 μg/kg intramuscular): 8.8 ± 1.0^## 10^9/L | anti-asthma activity (asthma in mice; mouse asthma model): remarkable anti-asthma activity | binding to IL1-R (IL1-R): efficiently bind | inhibitory effect on growth of Chang Liver cells [7]: little inhibitory effect | binding to IL12R (IL12R): efficiently bind | binding to CD58 (CD58): efficiently bind | binding to PDGFR (PDGFR): fully bind | binding to NOTCH1-3 (NOTCH1-3): efficiently bind | binding to VEGF molecule (VEGF): fully bind | binding to IL17RA (IL17RA): efficiently bind | binding to TCR (TCR): efficiently bind | binding to IL12 (IL12): efficiently bind
